No constants are given. Whether binding was seen depends on the method and setting. Binding seen in cells or lysates may run through a third protein. Some results given as binding are weak or reduced against the parent protein; the word gives no strength.
Biological target: forkhead box protein O3a (mouse (endogenous in ovaries)) (UniProt Q9WVH4)
Experiment: co-IP; ovaries of F0 SD and F0 HFD (4 weeks of high-fat diet) female mice lysed in IP buffer (KCl 50 mM, Tris-HCl 50 mM pH 8, EDTA 10 mM, 1% Nonidet P-40); 1-2 ug specific antibody or IgG with protein G-sepharose, 6 h at 4 °C, six washes; SDS-PAGE and immunoblotting

Amino acid sequences for entries named in this document (tags omitted).
UniProt Q9WVH4: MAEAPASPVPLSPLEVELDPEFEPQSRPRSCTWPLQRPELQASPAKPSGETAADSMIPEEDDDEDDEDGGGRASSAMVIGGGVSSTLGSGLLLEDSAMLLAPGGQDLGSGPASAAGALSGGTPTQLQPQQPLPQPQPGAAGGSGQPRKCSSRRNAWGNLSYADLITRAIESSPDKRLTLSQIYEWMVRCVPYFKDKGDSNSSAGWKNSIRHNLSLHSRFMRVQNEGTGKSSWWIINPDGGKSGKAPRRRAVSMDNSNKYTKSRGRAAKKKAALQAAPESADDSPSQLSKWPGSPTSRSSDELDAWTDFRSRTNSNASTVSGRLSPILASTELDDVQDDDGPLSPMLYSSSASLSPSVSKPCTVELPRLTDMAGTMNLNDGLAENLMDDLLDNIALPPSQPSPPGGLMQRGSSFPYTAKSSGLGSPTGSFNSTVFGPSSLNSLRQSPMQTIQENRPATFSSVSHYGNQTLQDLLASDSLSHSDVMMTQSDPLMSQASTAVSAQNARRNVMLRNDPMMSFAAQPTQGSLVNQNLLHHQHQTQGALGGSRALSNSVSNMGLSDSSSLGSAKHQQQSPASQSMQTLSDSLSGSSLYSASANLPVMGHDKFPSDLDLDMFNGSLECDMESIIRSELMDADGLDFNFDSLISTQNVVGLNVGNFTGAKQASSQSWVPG
UniProt P70288: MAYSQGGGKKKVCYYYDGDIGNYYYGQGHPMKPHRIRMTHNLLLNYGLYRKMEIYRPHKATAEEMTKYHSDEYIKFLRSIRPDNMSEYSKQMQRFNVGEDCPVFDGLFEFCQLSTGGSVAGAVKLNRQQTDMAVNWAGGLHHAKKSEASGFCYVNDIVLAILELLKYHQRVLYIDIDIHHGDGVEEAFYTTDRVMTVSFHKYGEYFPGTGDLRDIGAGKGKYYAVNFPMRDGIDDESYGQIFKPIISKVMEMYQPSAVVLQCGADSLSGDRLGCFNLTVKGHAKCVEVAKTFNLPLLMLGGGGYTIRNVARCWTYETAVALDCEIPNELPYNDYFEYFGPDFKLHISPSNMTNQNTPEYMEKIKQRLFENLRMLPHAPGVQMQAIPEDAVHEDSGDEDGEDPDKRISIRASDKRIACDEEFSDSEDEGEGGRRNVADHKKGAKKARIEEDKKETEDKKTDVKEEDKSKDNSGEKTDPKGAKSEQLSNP

binding: binds
Substance: HDAC2 (from UniProt P70288 1-488)

— publication PMC6805915
